± gives the standard deviation. Only a part is listed here, and it is no random draw. The uncertainty is large for many entries.
test system: EfPiwi piRISC loaded with piRNA #1 (26 nt); experiment: pre-steady-state target cleavage rate (min^-1); guide: piRNA #1 5'p-UGAGGUAGUAGGUUGUAUAGUAUCCA; MIWI and MILI are mouse PIWI proteins and EfPiwi is from a freshwater sponge; tags in brackets are library labels; higher = faster piRNA-guided slicing of the target; details: auxiliary factor: 500 nM Ephydatia muelleri Gtsf1
Method in brief: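 For Cleave-'n-Seq, a transcribed, DNA-blocked target RNA library […] met 1 nM active affinity-purified piRISC with one synthetic guide at 33 °C for 0–8 or 0–960 min in HEPES–potassium acetate buffer, with or without 500 nM GTSF1 partner protein. Uncleaved targets were sequenced and normalised to depth and weakly complementary targets, with three trials pooled and k3 capped at 0.0001 min^-1. A burst-and-steady-state fit supplied the pre-steady-state cleavage rate.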

Sequence | pre-steady-state target cleavage rate
GGAGACCUAACUAUACAUCCUACUACCUGA | 0.00344 ± 0.0029
GGAGACCAUACUAUACAACCUACUGCCUCA | 0.00606 ± 0.0025
GGAGACCUAACUAUACAACCUACUUCGUCA | 0.00192 ± 0.0033
GGAGACCUUACUAUACAACCUACAUCCUCA | 0.00277 ± 0.0036
GGAGUGGAUACUAUACAACCUACUACCUUCA | 0.168 ± 0.061
GGAGACCUAUGAUUACAAGCUACUACCACA | 0.00036 ± 0.011
GGAGACCUAACUAUUCAACCUACUACGUCA | 0.00137 ± 0.0065
GGAGACCUUACUAUACAACCUACUACCUUCA | 0.0532 ± 0.019
GGAGUCGAUACUAUACAACCUACUACCACA | 0.0037 ± 0.0015
GGAGACCUUACUAUACAAGCUACUACGUCA | 0.00235 ± 0.0032
GGAGACCUAUGAUAUGUUGCUACUACAUCA | 0.00137 ± 0.0052
GGAGAGGAUACUAUACAACCUACUACCUACA | 0.00995 ± 0.0044
GGAGUGCAUACUAUACAACCUACUACCACA | 0.00342 ± 0.0028
GGAGACCAUACAAUACAACCAACUACCUCA | 0.00183 ± 0.0057
GGAGACGAUACUAUAACAACCUACUACCUCA | 0.00793 ± 0.0029
GGAGACCAUCCUAUACAACCUACUACCUCA | 0.01 ± 0.006
GGAGAGGAUACUAUAGAACCUACAACCUCA | 0.00202 ± 0.0024
GGAGAGGAAUCUAUACAACCUACUACCUCA | 0.00943 ± 0.0056
GGAGUGGAUACUAUACAUCCUACUUCCUCA | 0.00326 ± 0.0017
GGAGACCAUACUAAACAACCUACUAGCUCA | 0.00109 ± 0.0056

Sequence | pre-steady-state target cleavage rate
GGAGACCAUACUAUACACCUACUACCUCA | 0.00694 ± 0.0042
GGAGACCUAACUAUACAACCUACUACUCA | 0.0025 ± 0.0044
GGAGACCAUACUAUACAACCUACUUACCUCA | 0.00697 ± 0.0031
GGAGACCUAACUAAACAACCUACAACCUCA | 0.000388 ± 0.018
GGAGAGGUUACUAUACAACCUACUACGUCA | 0.00435 ± 0.0016
GGAGUGGAUACUAUACAACCAACAACCUCA | 0.00217 ± 0.0016
GGAGACCUUACAAUACUACCUACUACCUCA | 0.00133 ± 0.0036
GGAGAGGAUUCUAUACAACCUACUAGCUCA | 0.00109 ± 0.003
GGAGACCUAACUUUACAACGUACUACCUCA | 0.00252 ± 0.0048
GGAGACCUUACUAUACAACCUAAUACCUCA | 0.00281 ± 0.0029
GGAGUGGAUACUAUACAAGGAACUACCUCA | 0.00208 ± 0.0036
GGAGUGGAUUCUAUACAACCAACUACCUCA | 0.00252 ± 0.0027
GGAGACGAUAGUAUUCAACCUACUACCUCA | 0.00179 ± 0.0051
GGAGACCUAUCUAUAGAACCUACUACCUCA | 0.0013 ± 0.0043
GGAGUGGAUAGUAUACAUCCUACUACCUCA | 0.00444 ± 0.0024
GGAGACCUAUGUAUACCAACCUACUACCUCA | 0.00258 ± 0.005
GGAGACCUAUCUUUACAACCUACUACGUCA | 0.00151 ± 0.0043
GGAGACCUUACUAUACAUCCUACUUCCUCA | 0.00308 ± 0.0031
GGAGACCUAUGAUAUCAACACUACUACCUCA | 0.00106 ± 0.0073
GGAGACCUAUGUAUCACAACCUACUACCUCA | 0.00213 ± 0.0035

Some of the entries so far, tab-delimited.
Sequence	pre-steady-state target cleavage rate
GGAGUCGAUACUAUACAACCUACUACCACA	0.0037 ± 0.0015
GGAGACCUUACUAUACAAGCUACUACGUCA	0.00235 ± 0.0032
GGAGACCUAUGAUAUGUUGCUACUACAUCA	0.00137 ± 0.0052
